Measured values from patent publication US20150209319A1, “COMPOSITIONS COMPRISING AN ANTIBODY AND CAMOSTAT MESYLATE (CM)” (Glaxo Group Limited, priority 2012, published 2015).
These are yes or no findings as the source states them, for the method shown. Some results given as binding are weak or reduced against the parent protein; the word gives no strength.

Chains of the proteins cited; added tags and fusions are not shown. Lines headed by an entry give the natural chain unless they say otherwise; changes in a name come on top.
UniProt P05231: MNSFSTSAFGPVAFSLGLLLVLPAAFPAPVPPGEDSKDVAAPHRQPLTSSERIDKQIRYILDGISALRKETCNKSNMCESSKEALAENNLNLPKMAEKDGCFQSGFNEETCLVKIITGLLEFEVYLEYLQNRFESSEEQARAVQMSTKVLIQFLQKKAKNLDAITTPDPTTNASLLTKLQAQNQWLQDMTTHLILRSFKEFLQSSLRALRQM
UniProt Q9NPF7: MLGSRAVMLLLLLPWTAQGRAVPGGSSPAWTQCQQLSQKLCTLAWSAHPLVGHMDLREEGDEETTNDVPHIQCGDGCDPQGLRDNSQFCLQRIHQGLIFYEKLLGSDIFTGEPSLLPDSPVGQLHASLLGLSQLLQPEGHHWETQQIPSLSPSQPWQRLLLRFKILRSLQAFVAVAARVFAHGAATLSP

How the values were obtained:
[1] = molecular target: IL-6 (Homo sapiens (Human)) (UniProt P05231); experiment: ELISA, plate coated with IL-6, detection with peroxidase-conjugated anti-human Fc antibody
[2] = molecular target: IL-6 (Homo sapiens (Human)) (UniProt P05231); experiment: ELISA, plate coated with IL-6, mAb from SIF incubation with or without camostat mesylate, anti-human Fc detection
[3] = molecular target: IL-6 (Homo sapiens (Human)) (UniProt P05231); experiment: ELISA on plate-coated IL-6, detection with peroxidase-conjugated anti-human Fc antibody, OPD, A490; mAb samples taken after incubation in SIF at 37 C with or without camostat mesylate (10 mg/ml), quantified against a mAb standard curve [a]
[4] = molecular target: IL-23 (Homo sapiens (Human)) (UniProt Q9NPF7); experiment: ELISA, plate coated with IL-23, detection with peroxidase-conjugated anti-human Fc antibody
[5] = molecular target: IL-23 (Homo sapiens (Human)) (UniProt Q9NPF7); experiment: ELISA, plate coated with IL-23, mAb from SIF incubation with or without camostat mesylate, anti-human Fc detection
[6] = molecular target: IL-23 (Homo sapiens (Human)) (UniProt Q9NPF7); experiment: ELISA on plate-coated IL-23, detection with peroxidase-conjugated anti-human Fc antibody, OPD, A490; mAb samples taken after incubation in SIF at 37 C with or without camostat mesylate (10 mg/ml), quantified against a mAb standard curve [b]

Measured: binding

B1: anti-IL-6 antibody (SEQ ID NOs: 1 and 2) (antibody, human IgG1, kappa, V domains shown)
VH: QVQLQESGPGLVKPSETLSLTCTVSGFSLSTSGMGVGWIRQPPGKGLEWIGHIWWDDDKYYNPSLKSRVTISVDTSKNQFSLKLSSVTAADTAVYYCARSYDDYLYYALDYWGQGTLVTVSS
VL: DIQMTQSPSSLSASVGDRVTITCRASQSISDYLHWYQQKPGKAPKLLIKSVSQSISGVPSRFSGSGSGTDFTLTISSLQPEDFATYYCQNGHSFPLTFGQGTKLEIKR
binds: [1] | [2] | [3]

B2: anti-IL-23 antibody (SEQ ID NOs: 3 and 4) (antibody, human IgG1, kappa, V domains shown)
VH: QVQLVQSGAEVKKPGSSVKVSCKASGYTFTSYGITWVRQAPGQGLEWMGENYPRSGNIYYNEKFKGRVTITADKSTSTAYMELSSLRSEDTAVYYCARAEFISTVVAPYYYALDYWGQGTLVTVSS
VL: DIVMTQSPDSLAVSLGERATINCKASKKVTIFGSTSALHWYQQKPGQPPKLIYNLAKPESGVPDRFSGSGSGTDFTLTISSLQAEDVAVYYCLQNKEVPYTFGGGTKVEIKR
binds: [4] | [5] | [6]
